Source: the supplement of paper PMC10849652
This is one part of the list.

By UniProt entry, the sequences of proteins in these tests, tags left out. Where a name states a change or a piece, a line headed by the entry shows the natural chain unless it says otherwise.
UniProt Q53S08: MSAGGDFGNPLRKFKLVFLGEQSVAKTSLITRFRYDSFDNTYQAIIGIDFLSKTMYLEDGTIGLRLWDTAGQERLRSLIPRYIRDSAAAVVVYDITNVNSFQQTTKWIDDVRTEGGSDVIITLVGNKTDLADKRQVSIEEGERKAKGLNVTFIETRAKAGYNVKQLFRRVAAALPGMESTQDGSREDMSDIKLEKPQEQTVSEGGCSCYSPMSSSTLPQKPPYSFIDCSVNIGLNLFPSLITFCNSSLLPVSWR
UniProt Q92878: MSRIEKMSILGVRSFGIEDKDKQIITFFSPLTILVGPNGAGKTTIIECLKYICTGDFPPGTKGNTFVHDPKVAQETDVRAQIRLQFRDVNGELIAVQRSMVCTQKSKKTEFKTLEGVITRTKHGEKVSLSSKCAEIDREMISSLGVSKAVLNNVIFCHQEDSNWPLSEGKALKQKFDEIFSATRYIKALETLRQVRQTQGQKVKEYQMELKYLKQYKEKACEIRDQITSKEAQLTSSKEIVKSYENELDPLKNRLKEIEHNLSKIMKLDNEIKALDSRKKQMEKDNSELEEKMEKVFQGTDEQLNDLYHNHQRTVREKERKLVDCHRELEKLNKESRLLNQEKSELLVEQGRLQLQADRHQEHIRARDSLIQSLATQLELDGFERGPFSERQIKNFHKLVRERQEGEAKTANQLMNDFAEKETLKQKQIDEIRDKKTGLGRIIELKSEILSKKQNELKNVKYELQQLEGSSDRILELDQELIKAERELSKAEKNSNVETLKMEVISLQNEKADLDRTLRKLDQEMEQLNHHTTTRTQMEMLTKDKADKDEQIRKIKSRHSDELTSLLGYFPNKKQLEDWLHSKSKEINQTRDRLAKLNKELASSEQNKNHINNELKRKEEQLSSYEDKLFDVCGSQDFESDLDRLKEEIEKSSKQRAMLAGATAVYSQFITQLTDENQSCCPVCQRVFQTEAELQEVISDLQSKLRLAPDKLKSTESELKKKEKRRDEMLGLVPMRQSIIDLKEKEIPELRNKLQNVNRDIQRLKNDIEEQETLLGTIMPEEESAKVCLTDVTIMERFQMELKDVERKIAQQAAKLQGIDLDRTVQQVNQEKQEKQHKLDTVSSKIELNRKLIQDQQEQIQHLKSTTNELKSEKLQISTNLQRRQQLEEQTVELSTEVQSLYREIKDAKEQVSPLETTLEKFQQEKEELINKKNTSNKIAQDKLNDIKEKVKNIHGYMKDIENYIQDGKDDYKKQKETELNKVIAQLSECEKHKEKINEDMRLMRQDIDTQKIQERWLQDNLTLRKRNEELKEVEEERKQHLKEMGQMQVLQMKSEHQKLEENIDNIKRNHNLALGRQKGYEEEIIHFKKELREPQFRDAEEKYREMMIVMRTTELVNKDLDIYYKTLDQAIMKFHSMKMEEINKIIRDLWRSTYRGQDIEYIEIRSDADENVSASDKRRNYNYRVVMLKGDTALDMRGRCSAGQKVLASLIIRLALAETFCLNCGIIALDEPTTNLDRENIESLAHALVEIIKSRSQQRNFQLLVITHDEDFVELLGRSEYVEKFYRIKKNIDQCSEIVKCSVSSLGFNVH
UniProt Q9Y3P9: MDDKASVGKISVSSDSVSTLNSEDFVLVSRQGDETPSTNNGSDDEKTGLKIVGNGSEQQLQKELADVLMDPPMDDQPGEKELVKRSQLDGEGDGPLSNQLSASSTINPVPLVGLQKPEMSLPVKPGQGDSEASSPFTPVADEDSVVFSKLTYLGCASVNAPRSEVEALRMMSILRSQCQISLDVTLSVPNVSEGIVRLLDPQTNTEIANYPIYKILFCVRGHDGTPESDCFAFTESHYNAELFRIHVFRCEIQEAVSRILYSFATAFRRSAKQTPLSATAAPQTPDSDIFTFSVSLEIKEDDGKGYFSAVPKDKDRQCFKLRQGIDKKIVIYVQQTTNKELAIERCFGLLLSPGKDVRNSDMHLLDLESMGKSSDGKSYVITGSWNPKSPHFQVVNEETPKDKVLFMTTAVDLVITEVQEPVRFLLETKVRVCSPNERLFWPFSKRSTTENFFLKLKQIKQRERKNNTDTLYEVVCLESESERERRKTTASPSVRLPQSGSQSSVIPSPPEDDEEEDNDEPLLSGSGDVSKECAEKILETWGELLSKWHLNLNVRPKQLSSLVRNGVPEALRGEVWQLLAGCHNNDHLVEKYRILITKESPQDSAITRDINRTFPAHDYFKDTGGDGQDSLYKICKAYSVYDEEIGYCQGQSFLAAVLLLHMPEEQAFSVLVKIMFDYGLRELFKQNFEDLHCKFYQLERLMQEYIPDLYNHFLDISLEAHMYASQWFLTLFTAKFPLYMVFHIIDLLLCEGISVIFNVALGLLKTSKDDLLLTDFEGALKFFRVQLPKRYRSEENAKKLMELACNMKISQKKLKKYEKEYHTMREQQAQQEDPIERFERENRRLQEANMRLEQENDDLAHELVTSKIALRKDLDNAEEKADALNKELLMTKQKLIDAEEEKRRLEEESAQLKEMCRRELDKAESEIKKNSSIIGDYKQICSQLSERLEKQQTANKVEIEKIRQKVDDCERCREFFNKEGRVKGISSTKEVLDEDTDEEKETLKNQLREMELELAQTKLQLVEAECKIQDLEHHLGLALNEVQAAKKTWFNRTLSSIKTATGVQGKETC
UniProt Q15907: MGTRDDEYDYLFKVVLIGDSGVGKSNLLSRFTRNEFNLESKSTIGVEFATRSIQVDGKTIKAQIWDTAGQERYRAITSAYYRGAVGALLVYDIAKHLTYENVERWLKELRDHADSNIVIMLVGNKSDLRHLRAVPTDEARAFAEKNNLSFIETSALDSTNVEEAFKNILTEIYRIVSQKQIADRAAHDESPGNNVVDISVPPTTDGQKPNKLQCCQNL
UniProt P61224: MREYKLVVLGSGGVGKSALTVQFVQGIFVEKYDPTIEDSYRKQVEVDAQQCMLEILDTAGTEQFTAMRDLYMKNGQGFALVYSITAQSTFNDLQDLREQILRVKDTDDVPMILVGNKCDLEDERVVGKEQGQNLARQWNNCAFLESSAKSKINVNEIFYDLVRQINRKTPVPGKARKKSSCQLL
UniProt P11216: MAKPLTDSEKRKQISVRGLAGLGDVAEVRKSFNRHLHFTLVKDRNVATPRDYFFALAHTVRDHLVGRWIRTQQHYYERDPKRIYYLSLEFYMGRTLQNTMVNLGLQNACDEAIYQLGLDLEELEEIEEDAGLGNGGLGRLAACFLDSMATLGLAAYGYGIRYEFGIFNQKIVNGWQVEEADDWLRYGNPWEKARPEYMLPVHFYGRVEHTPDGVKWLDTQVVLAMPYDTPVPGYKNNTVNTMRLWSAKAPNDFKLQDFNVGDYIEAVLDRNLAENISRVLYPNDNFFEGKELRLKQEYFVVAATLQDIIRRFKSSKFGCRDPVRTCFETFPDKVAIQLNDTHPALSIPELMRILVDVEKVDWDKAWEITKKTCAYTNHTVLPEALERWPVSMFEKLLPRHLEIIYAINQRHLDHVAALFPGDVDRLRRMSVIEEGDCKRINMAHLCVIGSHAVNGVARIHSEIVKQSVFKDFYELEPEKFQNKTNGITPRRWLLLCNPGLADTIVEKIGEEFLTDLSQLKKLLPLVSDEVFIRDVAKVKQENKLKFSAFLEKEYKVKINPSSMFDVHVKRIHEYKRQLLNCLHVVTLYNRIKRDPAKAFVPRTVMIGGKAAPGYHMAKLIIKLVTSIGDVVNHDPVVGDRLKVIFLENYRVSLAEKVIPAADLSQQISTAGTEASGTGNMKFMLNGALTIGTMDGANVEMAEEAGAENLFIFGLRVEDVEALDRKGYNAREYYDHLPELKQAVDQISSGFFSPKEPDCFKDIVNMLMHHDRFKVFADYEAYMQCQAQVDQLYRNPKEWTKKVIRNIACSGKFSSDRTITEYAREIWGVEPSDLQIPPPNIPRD
UniProt Q969Q5: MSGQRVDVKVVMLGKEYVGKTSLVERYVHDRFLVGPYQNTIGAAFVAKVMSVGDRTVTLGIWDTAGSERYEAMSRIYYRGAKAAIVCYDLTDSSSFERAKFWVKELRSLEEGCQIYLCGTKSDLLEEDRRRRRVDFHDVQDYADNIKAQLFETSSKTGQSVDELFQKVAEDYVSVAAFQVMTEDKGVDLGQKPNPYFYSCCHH
UniProt Q13636: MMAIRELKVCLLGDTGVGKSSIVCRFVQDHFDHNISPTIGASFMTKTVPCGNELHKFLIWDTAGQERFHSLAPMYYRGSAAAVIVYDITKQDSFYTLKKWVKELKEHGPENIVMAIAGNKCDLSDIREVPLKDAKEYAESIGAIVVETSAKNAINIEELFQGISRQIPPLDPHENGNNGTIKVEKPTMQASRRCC
UniProt Q15311: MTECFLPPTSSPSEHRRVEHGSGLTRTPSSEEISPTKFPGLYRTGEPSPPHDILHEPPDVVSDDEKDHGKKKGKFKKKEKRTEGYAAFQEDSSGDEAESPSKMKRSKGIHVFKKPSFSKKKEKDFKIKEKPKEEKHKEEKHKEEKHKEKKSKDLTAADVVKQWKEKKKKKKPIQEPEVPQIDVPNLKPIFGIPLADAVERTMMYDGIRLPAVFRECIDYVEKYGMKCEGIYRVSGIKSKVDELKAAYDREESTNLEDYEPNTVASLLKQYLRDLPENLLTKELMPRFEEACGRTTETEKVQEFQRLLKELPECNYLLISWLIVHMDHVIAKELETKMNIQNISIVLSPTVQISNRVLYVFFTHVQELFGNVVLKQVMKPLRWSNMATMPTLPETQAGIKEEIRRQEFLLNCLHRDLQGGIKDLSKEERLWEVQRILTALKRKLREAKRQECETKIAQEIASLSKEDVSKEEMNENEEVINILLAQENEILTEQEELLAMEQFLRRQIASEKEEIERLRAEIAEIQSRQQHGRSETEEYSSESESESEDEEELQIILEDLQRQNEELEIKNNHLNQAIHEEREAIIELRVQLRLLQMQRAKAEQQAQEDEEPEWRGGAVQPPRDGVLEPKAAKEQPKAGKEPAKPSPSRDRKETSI
UniProt Q9BTL3: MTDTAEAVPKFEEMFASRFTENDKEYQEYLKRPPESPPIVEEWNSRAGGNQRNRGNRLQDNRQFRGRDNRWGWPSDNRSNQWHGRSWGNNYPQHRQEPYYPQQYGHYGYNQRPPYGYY
UniProt Q86X10: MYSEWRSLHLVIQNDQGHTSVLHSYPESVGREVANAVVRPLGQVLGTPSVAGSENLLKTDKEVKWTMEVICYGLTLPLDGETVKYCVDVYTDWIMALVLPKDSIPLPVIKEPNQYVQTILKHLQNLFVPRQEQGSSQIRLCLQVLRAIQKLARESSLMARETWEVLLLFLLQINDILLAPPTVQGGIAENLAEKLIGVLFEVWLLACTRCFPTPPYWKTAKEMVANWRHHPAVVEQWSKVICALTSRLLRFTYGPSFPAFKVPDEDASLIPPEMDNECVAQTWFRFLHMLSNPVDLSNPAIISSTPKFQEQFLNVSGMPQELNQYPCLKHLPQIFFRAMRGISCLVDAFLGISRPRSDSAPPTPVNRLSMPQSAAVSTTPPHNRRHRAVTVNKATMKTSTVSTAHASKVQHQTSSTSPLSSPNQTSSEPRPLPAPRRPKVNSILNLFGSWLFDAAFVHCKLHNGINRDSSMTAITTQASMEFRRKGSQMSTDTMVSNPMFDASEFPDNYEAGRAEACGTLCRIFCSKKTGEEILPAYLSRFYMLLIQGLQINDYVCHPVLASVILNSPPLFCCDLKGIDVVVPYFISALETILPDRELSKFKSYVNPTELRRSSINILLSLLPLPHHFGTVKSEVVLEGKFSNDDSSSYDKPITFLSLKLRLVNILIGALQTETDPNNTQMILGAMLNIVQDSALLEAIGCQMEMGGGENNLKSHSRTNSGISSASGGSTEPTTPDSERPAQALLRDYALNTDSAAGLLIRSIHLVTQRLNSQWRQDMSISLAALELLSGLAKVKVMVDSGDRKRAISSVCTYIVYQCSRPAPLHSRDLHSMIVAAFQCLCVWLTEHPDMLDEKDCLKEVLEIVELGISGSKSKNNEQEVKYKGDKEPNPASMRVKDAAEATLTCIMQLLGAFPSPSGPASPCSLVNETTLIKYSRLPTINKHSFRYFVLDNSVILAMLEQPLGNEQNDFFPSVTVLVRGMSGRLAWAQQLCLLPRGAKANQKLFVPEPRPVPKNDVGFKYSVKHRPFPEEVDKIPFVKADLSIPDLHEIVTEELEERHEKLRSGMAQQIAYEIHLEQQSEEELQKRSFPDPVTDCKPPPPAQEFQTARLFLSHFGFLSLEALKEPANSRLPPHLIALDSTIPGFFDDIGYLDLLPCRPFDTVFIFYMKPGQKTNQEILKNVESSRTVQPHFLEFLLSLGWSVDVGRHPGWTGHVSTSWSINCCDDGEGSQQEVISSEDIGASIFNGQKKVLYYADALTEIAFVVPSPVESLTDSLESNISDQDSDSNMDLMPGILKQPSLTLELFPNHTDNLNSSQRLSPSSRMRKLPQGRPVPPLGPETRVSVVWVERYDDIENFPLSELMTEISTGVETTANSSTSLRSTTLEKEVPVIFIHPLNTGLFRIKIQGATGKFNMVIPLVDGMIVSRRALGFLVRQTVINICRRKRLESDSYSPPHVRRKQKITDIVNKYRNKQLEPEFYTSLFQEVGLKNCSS

Tests used:
Experiment in all cases: log2 fold change, soluble protein after heating vs DMSO (PISA); higher = thermal stabilisation; K562 lysate, 10 uM; active = over 0.2 and 3.5 SD of the protein, either way, in both replicates (recomputed)
ibrutinib = compound: C=CC(=O)N1CCC[C@@H](n2nc(-c3ccc(Oc4ccccc4)cc3)c3c(N)ncnc32)C1 [ibrutinib]
Method in brief: (§1)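 K562 pellets were dounce-homogenised in PBS pH 7.4 containing 1 mM MgCl2, and the crude extract, at 1 mg/mL protein, was exposed to 10 μM compound for 30 min. Aliquots were heated for 3 min across 48°C-58°C, pooled, brought to 0.5% NP-40 at 4°C and spun at 21,000xg for 90 min, with the supernatant taken as soluble protein. TMTpro 16plex LC-MS/MS with equalised channel sums quantified that protein. Values are log-two fold changes in thermal stability relative to solvent controls, taken from duplicates.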

[1] = compound: CC(=O)c1cnc2ccc(-c3cc(Cl)c(O)c(Cl)c3)nc2c1N[C@H]1CC[C@H](CN(C)C)CC1
Method in brief: as §1

ralimetinib = compound: CC(C)(C)Cn1c(N)nc2ccc(-c3[nH]c(C(C)(C)C)nc3-c3ccc(F)cc3)nc21 [ralimetinib]
Method in brief: as §1

[2] = compound: CC(C)(O)CC(=O)NCCn1ccc2ncnc(Nc3ccc(Oc4cccc(C(F)(F)F)c4)c(Cl)c3)c21
Method in brief: as §1

[3] = compound: CC(C)C1=C2N=C(C=C(N2N=C1)NCC3=CC=CC=C3)NCCCCCCN
Method in brief: as §1

[4] = compound: CC1=C(C(CC(=O)N1)C2=CC=C(C=C2)C(F)(F)F)C(=O)NC3=C(C=C4C(=C3)C=NN4)F
Method in brief: as §1

[5] = compound: CC1=C(C2=C(C=C1)C(=O)C3=CC=CC=C3N2CCCN)C
Method in brief: as §1

[6] = compound: CC1=C(C=C(C=C1)NC(=O)C2=CC(=CC=C2)C(C)(C)C#N)NC3=CC4=C(C=C3)N=CN(C4=O)C
Method in brief: as §1

[7] = compound: CC1=C(C=C(C=C1)NC(=O)C2=CC(=CC=C2)N(C)C)NC(=O)C3=CC=C(C=C3)O
Method in brief: as §1

[8] = compound: CC1=CC=C(C=C1)SC2=C3C=C(SC3=CN=C2)C(=O)N
Method in brief: as §1

vemurafenib = compound: CCCS(=O)(=O)Nc1ccc(F)c(C(=O)c2c[nH]c3ncc(-c4ccc(Cl)cc4)cc23)c1F [vemurafenib]
Method in brief: as §1

[9] = compound: CCCS(=O)(=O)Nc1ccc(F)c(C(=O)c2c[nH]c3ncc(Cl)cc23)c1F
Method in brief: as §1

barasertib = compound: CCN(CCCOc1ccc2c(Nc3cc(CC(=O)Nc4cccc(F)c4)[nH]n3)ncnc2c1)CCOP(=O)(O)O [barasertib]
Method in brief: as §1

[10] = compound: CC[C@@H]1C(=O)N(C)c2cnc(Nc3ccc(C(=O)NC4CCN(C)CC4)cc3OC)nc2N1C1CCCC1
Method in brief: as §1

volasertib = compound: CC[C@@H]1C(=O)N(C)c2cnc(Nc3ccc(C(=O)N[C@H]4CC[C@H](N5CCN(CC6CC6)CC5)CC4)cc3OC)nc2N1C(C)C [volasertib]
Method in brief: as §1

[11] = compound: CCn1c(C(=O)N(C2CC2)C2CC2)cc2c3c(ncn3C)c(Nc3cc(C)n(C)n3)nc21
Method in brief: as §1

[12] = compound: CCn1cc(-c2ccnc3[nH]c(-c4cccc(CN(C)C)c4)cc23)c(-c2ccc(NC(=O)N(C)C)cc2)n1
Method in brief: as §1

[13] = compound: CN1CCC(CNc2ccc3ncc(-c4cccc(OC(F)(F)F)c4)n3n2)CC1
Method in brief: as §1

saracatinib = compound: CN1CCN(CCOc2cc(OC3CCOCC3)c3c(Nc4c(Cl)ccc5c4OCO5)ncnc3c2)CC1 [saracatinib]
Method in brief: as §1

sotrastaurin = compound: CN1CCN(c2nc(C3=C(c4c[nH]c5ccccc45)C(=O)NC3=O)c3ccccc3n2)CC1 [sotrastaurin]
Method in brief: as §1

Measured: log2 fold change

RAB6D (UniProt Q53S08)
inactive: ibrutinib 0 | [1] 0.013 | ralimetinib -0.011 | [2] -0.087 | [3] 0.014 | [4] -0.113 | [5] -0.057 | [6] 0.009 | [7] 0.009 | [8] -0.026 | vemurafenib 0.005 | [9] -0.033 | barasertib 0.15 | volasertib 0.033 | [11] -0.049 | [12] -0.065 | [13] 0.018 | saracatinib -0.053 | sotrastaurin -0.025
active: [10] 0.289

RAD50 isoform 2 (UniProt Q92878)
inactive: ibrutinib 0.002 | [1] -0.01 | ralimetinib 0.01 | [2] 0.018 | [3] 0 | [4] -0.001 | [5] 0.03 | [6] 0 | [7] 0.017 | [8] -0.006 | vemurafenib 0.004 | [9] 0.013 | barasertib 0.025 | [10] -0.011 | volasertib -0.047 | [11] 0.039 | [12] -0.024 | [13] -0.024 | saracatinib 0 | sotrastaurin 0.036

RABGAP1 (UniProt Q9Y3P9)
inactive: ibrutinib -0.007 | [1] -0.005 | ralimetinib 0.012 | [2] -0.013 | [3] -0.026 | [4] -0.016 | [5] -0.014 | [6] 0.003 | [7] 0.019 | [8] -0.028 | vemurafenib -0.019 | [9] 0.002 | barasertib 0.015 | [10] 0.015 | volasertib -0.007 | [11] 0.002 | [12] 0.027 | [13] -0.006 | saracatinib 0.004 | sotrastaurin 0.025

RAB11B (UniProt Q15907)
inactive: ibrutinib 0.085 | [1] 0.006 | ralimetinib -0.031 | [2] -0.036 | [3] 0.007 | [4] 0.002 | [5] 0.006 | [6] -0.003 | [7] 0.028 | [8] -0.023 | vemurafenib 0 | [9] -0.057 | barasertib 0.174 | [10] 0.019 | volasertib 0.007 | [11] -0.006 | [12] -0.104 | [13] 0.076 | saracatinib -0.011 | sotrastaurin 0.009

RAP1B (UniProt P61224)
active: [12] 0.372
inactive: ibrutinib -0.024 | [1] -0.005 | ralimetinib 0.051 | [2] -0.03 | [3] -0.014 | [4] -0.01 | [5] 0.004 | [6] 0.008 | [7] -0.017 | [8] -0.008 | vemurafenib 0.006 | [9] 0.008 | barasertib 0.054 | [10] 0.061 | volasertib 0.018 | [11] -0.037 | [13] -0.035 | saracatinib 0.002 | sotrastaurin 0.005

RAB13 (UniProt P51153)
inactive: ibrutinib 0.017 | [1] 0.114 | ralimetinib 0.065 | [2] 0.091 | [3] -0.02 | [4] 0 | [5] 0.05 | [6] -0.223 | [7] 0.002 | [8] 0.085 | vemurafenib -0.045 | [9] -0.114 | barasertib -0.097 | [10] -0.183 | volasertib 0 | [11] 0.072 | [12] 0.01 | [13] 0.025 | saracatinib -0.034 | sotrastaurin 0.09

RAP1A (UniProt P62834)
inactive: ibrutinib -0.009 | [1] 0.024 | ralimetinib -0.004 | [2] 0.002 | [3] -0.011 | [4] 0.019 | [5] 0.001 | [6] 0.002 | [7] -0.029 | [8] 0.002 | vemurafenib -0.002 | [9] -0.017 | barasertib 0.041 | [10] 0.019 | volasertib 0.009 | [11] -0.008 | [12] -0.092 | [13] 0.029 | saracatinib -0.017 | sotrastaurin -0.006

PYGB (UniProt P11216)
inactive: ibrutinib -0.004 | [1] 0.004 | ralimetinib 0.032 | [2] 0.005 | [3] -0.008 | [4] 0.005 | [5] 0.018 | [6] 0.014 | [7] 0.014 | [8] -0.017 | vemurafenib -0.014 | [9] 0.014 | barasertib 0.001 | [10] -0.154 | volasertib 0.006 | [11] -0.004 | [12] 0.061 | [13] -0.035 | saracatinib 0.033 | sotrastaurin 0.004

RAB24 (UniProt Q969Q5)
inactive: ibrutinib 0.007 | [1] 0.017 | ralimetinib -0.011 | [2] 0.01 | [3] -0.005 | [4] 0.028 | [5] -0.012 | [6] 0.024 | [7] -0.019 | [8] 0.036 | vemurafenib 0.043 | [9] 0.028 | barasertib -0.008 | [10] 0.077 | volasertib 0.048 | [11] 0.013 | [12] 0.005 | [13] 0.019 | saracatinib 0.036 | sotrastaurin 0.024

RAB31 (UniProt Q13636)
inactive: ibrutinib 0.009 | [1] -0.052 | ralimetinib 0.02 | [2] -0.028 | [3] 0.003 | [4] -0.043 | [5] 0.005 | [6] 0.025 | [7] -0.014 | [8] 0.008 | vemurafenib 0.02 | [9] -0.027 | barasertib -0.018 | [10] -0.01 | volasertib -0.011 | [11] -0.019 | [12] 0.01 | [13] 0.089 | saracatinib 0.039 | sotrastaurin -0.025

RALBP1 (UniProt Q15311)
inactive: ibrutinib 0.044 | [1] 0.028 | ralimetinib -0.006 | [2] -0.035 | [3] -0.001 | [4] 0.008 | [5] -0.009 | [6] 0.033 | [7] 0.055 | [8] 0 | vemurafenib -0.027 | [9] 0.01 | barasertib 0.108 | [10] 0.016 | volasertib 0.005 | [11] -0.002 | [12] -0.015 | [13] -0.004 | saracatinib 0.028 | sotrastaurin 0.038

RAB5B (UniProt P61020)
inactive: ibrutinib 0.015 | [1] -0.024 | ralimetinib 0.015 | [2] 0.011 | [3] 0.009 | [4] 0.04 | [5] 0.031 | [6] 0.053 | [7] -0.027 | [8] 0.016 | vemurafenib 0.012 | [9] 0.005 | barasertib 0.061 | [10] 0.055 | volasertib 0.065 | [11] -0.046 | [12] -0.116 | [13] 0.011 | saracatinib 0.002 | sotrastaurin 0.037

RAMAC (UniProt Q9BTL3)
inactive: ibrutinib 0.028 | [1] -0.025 | ralimetinib -0.053 | [2] -0.073 | [3] 0.002 | [4] 0.005 | [5] 0 | [6] -0.01 | [7] -0.03 | [8] 0.026 | vemurafenib -0.069 | [9] 0.035 | barasertib -0.05 | [10] 0.015 | volasertib 0.025 | [11] 0 | [12] 0.059 | [13] -0.02 | saracatinib 0.017 | sotrastaurin -0.005

RABGGTB (UniProt P53611)
inactive: ibrutinib -0.017 | [1] -0.042 | ralimetinib 0.018 | [2] -0.052 | [3] 0.015 | [4] -0.002 | [5] -0.006 | [6] -0.013 | [7] 0.048 | [8] 0.013 | vemurafenib -0.022 | [9] 0.058 | barasertib 0.096 | [10] -0.034 | volasertib 0.008 | [11] -0.031 | [12] 0.151 | [13] -0.033 | saracatinib -0.017 | sotrastaurin 0.037

RAB3IP (UniProt Q96QF0)
inactive: ibrutinib 0.159 | [1] 0 | ralimetinib 0.045 | [2] 0.01 | [3] -0.01 | [4] 0.04 | [5] 0.002 | [6] 0.013 | [7] 0.051 | [8] -0.034 | vemurafenib -0.026 | [9] 0.096 | barasertib 0.002 | [10] 0.013 | volasertib -0.013 | [11] 0.001 | [12] 0.019 | [13] 0.033 | saracatinib 0.029 | sotrastaurin -0.015

RALGAPB (UniProt Q86X10)
inactive: ibrutinib 0.066 | [1] -0.002 | ralimetinib 0.033 | [2] -0.038 | [3] 0.003 | [4] -0.048 | [5] 0.029 | [6] 0.065 | [7] 0.032 | [8] 0.01 | vemurafenib 0.044 | [9] 0.016 | barasertib 0.103 | [10] -0.008 | volasertib -0.023 | [11] -0.013 | [12] -0.09 | [13] 0.07 | saracatinib 0.017 | sotrastaurin 0.032

Random excerpt: 2 records from the list.
RALGAPB (UniProt Q86X10)
inactive: ibrutinib 0.066 | [1] -0.002 | ralimetinib 0.033 | [2] -0.038 | [3] 0.003 | [4] -0.048 | [5] 0.029 | [6] 0.065 | [7] 0.032 | [8] 0.01 | vemurafenib 0.044 | [9] 0.016 | barasertib 0.103 | [10] -0.008 | volasertib -0.023 | [11] -0.013 | [12] -0.09 | [13] 0.07 | saracatinib 0.017 | sotrastaurin 0.032

RAB5B (UniProt P61020)
inactive: ibrutinib 0.015 | [1] -0.024 | ralimetinib 0.015 | [2] 0.011 | [3] 0.009 | [4] 0.04 | [5] 0.031 | [6] 0.053 | [7] -0.027 | [8] 0.016 | vemurafenib 0.012 | [9] 0.005 | barasertib 0.061 | [10] 0.055 | volasertib 0.065 | [11] -0.046 | [12] -0.116 | [13] 0.011 | saracatinib 0.002 | sotrastaurin 0.037
